In assay [1] the target is T1, FLAG-PPM1H (protein phosphatase magnesium- or manganous-dependent 1H) (UniProt Q9ULR3).
T1 sequence: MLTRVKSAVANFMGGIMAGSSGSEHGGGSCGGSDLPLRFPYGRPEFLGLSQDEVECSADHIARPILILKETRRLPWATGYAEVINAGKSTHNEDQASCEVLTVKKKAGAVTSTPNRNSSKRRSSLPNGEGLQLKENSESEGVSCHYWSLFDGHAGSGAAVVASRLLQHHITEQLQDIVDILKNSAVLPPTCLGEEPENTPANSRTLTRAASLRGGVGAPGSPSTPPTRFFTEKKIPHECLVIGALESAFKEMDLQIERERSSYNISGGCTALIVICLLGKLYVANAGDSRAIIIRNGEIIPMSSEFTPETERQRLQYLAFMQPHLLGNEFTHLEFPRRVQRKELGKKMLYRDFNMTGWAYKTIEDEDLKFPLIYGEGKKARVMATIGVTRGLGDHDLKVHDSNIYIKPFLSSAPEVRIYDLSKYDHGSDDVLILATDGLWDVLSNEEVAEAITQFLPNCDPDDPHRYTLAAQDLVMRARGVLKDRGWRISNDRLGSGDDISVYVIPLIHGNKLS
Description: co-IP; RIPA lysates of transfected Hep-G2 or Huh-7 cells, serum-free overnight, with or without insulin (10 ug/mL, 2 h before harvest); specific or isotype control antibody at 4 °C overnight, Protein A/G Plus-agarose 2 h, PBS washes, immunoblot. In general terms: A western blot detects proteins with antibodies after separation by electrophoresis.

The chains behind the UniProt entries cited, without tags or fusion partners.
UniProt P23443: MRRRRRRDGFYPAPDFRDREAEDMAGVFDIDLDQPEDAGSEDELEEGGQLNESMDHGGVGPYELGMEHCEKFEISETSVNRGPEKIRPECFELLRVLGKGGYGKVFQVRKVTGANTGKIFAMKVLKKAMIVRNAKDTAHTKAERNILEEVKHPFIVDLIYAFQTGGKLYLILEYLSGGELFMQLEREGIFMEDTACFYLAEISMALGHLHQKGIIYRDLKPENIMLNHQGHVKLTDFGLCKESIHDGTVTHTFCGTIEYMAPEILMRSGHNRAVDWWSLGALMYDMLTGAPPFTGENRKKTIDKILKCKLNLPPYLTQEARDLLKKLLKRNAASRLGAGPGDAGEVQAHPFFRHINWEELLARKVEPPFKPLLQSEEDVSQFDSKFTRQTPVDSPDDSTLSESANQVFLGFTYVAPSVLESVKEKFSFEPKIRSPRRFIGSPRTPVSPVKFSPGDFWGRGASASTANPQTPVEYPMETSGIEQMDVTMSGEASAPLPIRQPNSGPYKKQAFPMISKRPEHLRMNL

Assay [2] addresses FLAG-RPS6KB1 (ribosomal protein S6 kinase B1) (UniProt P23443). The assay is described as above.

These are yes or no findings as the source states them, for the method shown. In cells and extracts the contact can be indirect. Some results given as binding are weak or reduced against the parent protein; the word gives no strength. For some assays here: Where a sequence is shown, tags or fusion partners need not be part of it.

For the molecule “ribosomal protein S6 kinase B1 (RPS6KB1), endogenous (from UniProt P23443 1-525) (enzyme)”, the binding result in assay [1] is given as “binds”.

B1: PPM1H, endogenous (enzyme, UniProt Q9ULR3 1-514)
chain: MLTRVKSAVANFMGGIMAGSSGSEHGGGSCGGSDLPLRFPYGRPEFLGLSQDEVECSADHIARPILILKETRRLPWATGYAEVINAGKSTHNEDQASCEVLTVKKKAGAVTSTPNRNSSKRRSSLPNGEGLQLKENSESEGVSCHYWSLFDGHAGSGAAVVASRLLQHHITEQLQDIVDILKNSAVLPPTCLGEEPENTPANSRTLTRAASLRGGVGAPGSPSTPPTRFFTEKKIPHECLVIGALESAFKEMDLQIERERSSYNISGGCTALIVICLLGKLYVANAGDSRAIIIRNGEIIPMSSEFTPETERQRLQYLAFMQPHLLGNEFTHLEFPRRVQRKELGKKMLYRDFNMTGWAYKTIEDEDLKFPLIYGEGKKARVMATIGVTRGLGDHDLKVHDSNIYIKPFLSSAPEVRIYDLSKYDHGSDDVLILATDGLWDVLSNEEVAEAITQFLPNCDPDDPHRYTLAAQDLVMRARGVLKDRGWRISNDRLGSGDDISVYVIPLIHGNKLS
As for B1, the binding entry in assay [2] is on record as “binds”.

(Values after PMC10345229.)
